Experimental data published in the supplement of paper PMC12823440, “Inhibitors supercharge kinase turnover through native proteolytic circuits” (Nature, 2025).
Where a name gives a salt, the structure may show the parent alone. The list shows a part of the results. Hit calls seldom repeat between salt and free forms of one compound.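 Kinases, fused to nanoluciferase, were expressed in K562 cells; luminescence was measured every 4 h from 2 to 18 h as percent of control (DMSO = 100%, positive control = 0%). A time point is decreased if signal falls significantly (2 sigma). Hits were called by the authors by a rule that is not shown; the count of time points alone does not decide it.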

The chains behind the UniProt entries cited, without tags or fusion partners.
UniProt P50750, whole entry: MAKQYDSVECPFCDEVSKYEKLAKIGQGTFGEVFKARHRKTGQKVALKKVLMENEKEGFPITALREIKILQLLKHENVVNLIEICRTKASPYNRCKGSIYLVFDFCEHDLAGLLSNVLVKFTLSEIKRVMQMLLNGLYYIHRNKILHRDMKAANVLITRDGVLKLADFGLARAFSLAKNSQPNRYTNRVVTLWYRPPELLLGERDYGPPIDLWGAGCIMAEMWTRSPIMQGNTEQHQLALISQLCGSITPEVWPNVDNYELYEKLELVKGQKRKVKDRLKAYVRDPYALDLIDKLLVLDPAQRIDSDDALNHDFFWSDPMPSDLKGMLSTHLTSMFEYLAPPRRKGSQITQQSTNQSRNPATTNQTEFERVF

Each compound was assayed against CDK9 (UniProt P50750) (assay: kinase-Nluc reporter destabilization hit call (1 = scored as downregulated) (binary); higher = compound decreases kinase abundance). Details: K562; 2-18 h.

kinase-Nluc reporter destabilization hit call, inactive:
CC#CC(=O)N[C@H]1CCCN(c2c(F)cc(C(N)=O)c3[nH]c(C)c(C)c23)C1 [Branebrutinib] (10 µM) 0, O=C1NC(=NCc2cccs2)S/C1=C\c1ccc2ncccc2c1 (10 µM) 0, Cn1c(=O)n(-c2ccc(C(C)(C)C#N)cc2)c2c3cc(-c4cnc5ccccc5c4)ccc3ncc21 [Dactolisib (Tosylate)] (10 µM) 0, COC(=O)c1ccc2c(C(=Nc3ccc(N(C)C(=O)CN4CCN(C)CC4)cc3)c3ccccc3)c(O)[nH]c2c1 [Nintedanib] (2.5 µM) 0, COc1cc2ncnc(Nc3ccc(O)cc3)c2cc1OC (10 µM) 0, O=C(c1ccc(-c2ccc(Cl)cc2)o1)N(Cc1ccccn1)c1ccc(N2CCNCC2)cc1 [MK2-IN-1 (hydrochloride)] (10 µM) 0, CN1CCN(S(=O)(=O)c2ccc(-c3cnc(N)c(C(=O)Nc4cccnc4)n3)cc2)CC1 (10 µM) 0, CN(C)C[C@@H]1CCn2cc(c3ccccc32)C2=C(C(=O)NC2=O)c2cn(c3ccccc23)CCO1 [Ruboxistaurin (hydrochloride)] (10 µM) 0, COc1ccc(Oc2cc(NCCC(F)(F)F)c3ncc(-c4ccc(C(=O)NC5CC5)c(C)c4)n3n2)c(F)c1F (2.5 µM) 0, CCCCNc1ncc(-c2ccc(CN3CCOCC3)cn2)c(NC2CCC(O)CC2)n1 (stereo unspecified) (10 µM) 0, O=C(Nc1cc(C(F)(F)F)ccc1N1CCN(Cc2ccccn2)CC1)c1ccc(-c2ccncc2)o1 (10 µM) 0
